Source: patent US20070196865A1 (priority 2003, published 2007)

Key:
[1] = test system: α1bAR, β2AR, AT1AR, and DOR; settings: pool of four U2OS cell lines expressing α1bAR
Method: (§1) The assays were carried out using various “double stable” human osteosarcoma cell (U2OS) lines. Each cell line stably expressed an arrestin-GFP conjugate of the Renilla reniformis green fluorescent protein fused in frame to the carboxyl terminus of rat β-arrestin2 as well as one of the following GPCRs: α1b adrenergic receptor (α1bAR), beta2-AR […], delta opioid (DOR) receptor, angiotensin1A receptor (AT1AR), or V2 vasopressin receptor (V2R).
(§2) Cells were plated 16-24 hours prior to the experiment at approximately 6,000 cells per well. Cells were removed from the flasks with trypsin and suspended in growth media for plating at a density of 100,000 cells per ml.
(§3) One of two methods were used to multiplex the cell lines. In one method, each cell line was dispensed independently such that the final cell number was approximately 6,000 cells per well. The dispense volume was adjusted depending on the number of cell lines used. […]
(§4) Plates were imaged for response determination on an In Cell Analyzer 3000, Gen. […] Pit or vesicle responses were quantitated using the Granularity Module of the Raven Software. That is, the In Cell Analyzer 3000 was used to quantitate the localization of the arrestin-GFP conjugate for the cells in each well. […] The average of the fluorescent intensity of the identified grains per cell in an acquired image (i.e., Fgrains) was determined for each well on the plates. […]

[2] = test system: α1bAR, β2AR, AT1AR, DOR, and V2R; assay: Multiplex Receptor Assay With Five GPCRs (pooled cell lines, arrestin-GFP Fgrains); format: cell-based, human; settings: pool of five U2OS cell lines expressing α1bAR
Method: as §1, §2, §3, §4

NC[C@H](O)c1ccc(O)c(O)c1 [NE, norepinephrine]
slope of the concentration-response curve [1]: 1.2
slope of the concentration-response curve [2]: 2.2
